## Library screening results

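Viability assay of Plasmodium falciparum sporozoites; the read-out is not stated. The concentration is filed as 10 mM, unlikely as a test dose, so the dose is not known. Higher reads as lower viability (inferred: compounds with an IC50 in retests scored well above the rest). Strong results were mostly tested again. Of about 34,000 compounds tested this way, about 280 (0.84%) reached 50% or more in at least one test.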

Each number is a percent effect as filed. How 0% and 100% were set is not recorded. Most values in the screen are low, and negative values occur. The compounds are a random part of those screened. Two or more numbers in one place are separate tests of the same structure; such repeats can differ widely.

| compound | percent effect |
|---|---|
| `Cc1nnc(C(C)N2CCCN(Cc3ccc(C#N)cc3)CC2)o1` (stereo not given) | 4.658 |
| `N#CCCSc1nnc(Cc2ccccc2F)o1` | 3.333 |
| `Cc1cccn2c(=O)cc(OC(=O)c3ccccc3Cl)nc12` | -8.084 |
| `CCOc1cccc(CNc2ccccc2C(=O)OC)c1O` | -13.16 |
| `CCCc1noc(CN2CCN(c3nccs3)CC2)n1` | 0.7842 |
| `O=S(=O)(Cc1ccccc1)NCCc1nnc2n1CCC2` | -4.632 |
| `Cc1ccc2[nH]c(C(=O)N3CCCC3Cn3cccn3)cc2c1` (stereo not given) | -9.816 |
| `Cc1cc(C)n(CC2CN(CC(=O)NCc3cccs3)CCO2)n1` (stereo not given) | 7.417 |
| `CN(C)C(=O)N1CCN(C(=O)C(c2ccccc2F)N(C)C)CC1` (stereo not given) | -8.511 |
| `O=C(NCCNc1ncccn1)C1CC(=O)N(CC2CC2)C1` (stereo not given) | 7.469 |
| `CCc1cc(C(=O)N2CC[C@@H](c3ccc4c(c3)OCO4)[C@H](O)C2)ccn1` | -3.837 |
| `[H][C@@]12CCN(C(=O)Cc3ccsc3)C[C@@]1([H])O[C@H](c1noc(C)n1)C2` | -0.783 |
| `COCCOc1ccccc1C(=O)N(C)Cc1ncc(C)c(OC)c1C` | 2.453 |
| `CC(=O)N1CCOCC(Cc2ccc3c(ccn3C)c2)C1` (stereo not given) | 3.23 |
| `Cc1noc(C(C)C)c1C(=O)NCCN1CCCCCC1=O` | -2.311 |
| `Cc1nc(C)c(C(=O)NCCNc2ncccc2C(F)(F)F)s1` | 1.159 |
| `O=C1CN(C(=O)OCc2ccccc2)CC(O)CN1Cc1ccco1` (stereo not given) | -36.24 |
| `COc1ccc(NC(=O)CCn2nc(-c3cccs3)oc2=O)cc1OC` | 4.247 |
| `Cc1noc(C)c1CNC(=O)c1ccc(NC2CC2)nc1` | -0.5705 |
| `COc1ccc(C(C(=O)O)N2CCC(Cn3cccn3)CC2)cc1F` (stereo not given) | -7.781 and -11.29 |
| `O=C(O)C(F)(F)F.[H][C@@]12CCN(CC(=O)NC)C[C@]1([H])CN(C(=O)c1ccc(C)nc1)C2` | -3.764 |
| `Cc1[nH]c2ccccc2c1-c1ccnc(NCCN2CCOCC2)n1` | -8.088 |
| `COC(=O)CN(Cc1ccccc1C)C(=O)CCCNC(=O)C1CC1` | -0.5562 |
| `CCc1nc(C2CCCN2CC(=O)Nc2cc(C)nn2C)no1` (stereo not given) | 2.76 |
| `Cl.Nc1nc(Nc2ccccc2)cc(N2CCNCC2)n1` | -4.317 |
| `COC(=O)CCC(=O)N1CCCC2(CCCN2Cc2cccc(F)c2)C1.O=C(O)C(F)(F)F` (stereo not given) | -14.71 |
| `CN(CC(=O)N1CCCC1c1cnn(C)c1)c1ccc(Cl)cn1` (stereo not given) | 0.5705 |
| `Cc1ccsc1C(=O)N1CC(C(=O)NCC2CC2)C2(CCOCC2)C1` (stereo not given) | -6.369 |
| `CCC(C)C(=O)NCc1cccc(N2CCCCC2=O)c1` (stereo not given) | -6.02 |
| `CN(C)Cc1cnn(-c2ccccc2C(=O)N(C)Cc2ccccc2)c1` | 7.397 |
| `[H][C@]12CCN(C(=O)Nc3ccccc3C)CC[C@@]1([H])S(=O)(=O)N(CCOC)C2` | 3.593 |
| `Cc1cc(OCC(=O)N2CCCC(c3nc(C)c(C)s3)C2)no1` (stereo not given) | -448.6 |
| `CC(c1nc(C2CC2)no1)N1CCN(Cc2ccccc2F)CC1` (stereo not given) | -24.82 |
| `CN1CCNC(Cc2ccc(-c3ccncc3)cc2)C1=O.Cl` (stereo not given) | 1.966 |
| `Cc1ccc2c(c1)C(=O)NCC1(CCN(C(=O)c3ccnn3C)CC1)O2` | 13.05 |
| `CC(C(=O)Nc1ccnn1C(C)C)N1CCCN(c2nccs2)CC1` (stereo not given) | 1.384 |
| `CN(Cc1ccco1)C1CCC12CCN(C(=O)C1CCOCC1)CC2.O=C(O)C(F)(F)F` (stereo not given) | 10.44 |
| `CC(Nc1nccc(CCC(F)(F)F)n1)c1nc(-c2ccccn2)no1` (stereo not given) | 60.54 and 52.08 |
| `COc1cccc(Cc2nnc(SCCS(C)(=O)=O)o2)c1` | -7.353 |
| `CC1CN(C(=O)NCCNc2cnccn2)CCO1` (stereo not given) | 9.951 |
| `Cc1scc(C(=O)N2CCC3(CC(=O)NC3=O)C2)c1-c1ccccc1` (stereo not given) | 0.5882 |
| `CCn1c(C)nnc1CN(C)C1CCN(Cc2nccn2C)C1` (stereo not given) | -2.537 |
| `O=C(CNC(=O)c1ccc2c(c1)CCC2)NCCNc1ncccn1` | -21.45 |
| `COc1cc(C)nc(N2CCN(C(=O)c3cc(C)no3)CC2)n1` | 2.833 |
| `CCOC(=O)N1CCN(c2nc(NC)c3ccccc3n2)CC1` | -13.6 |
| `Cc1cc(NC(=O)CN2CCCC2c2c(C)nn(C)c2C)on1` (stereo not given) | 0.4802 |
| `CCCc1n[nH]c(C2CN(Cc3nnc(C4CC4)o3)CCO2)n1` (stereo not given) | 1.069 |
| `CCN1CCN(C(=O)c2ccc(Cn3ccccc3=O)o2)CC1` | -9.383 |

Once more, the final 5:

Result for COc1cc(C)nc(N2CCN(C(=O)c3cc(C)no3)CC2)n1 was 2.833%.
Result for CCOC(=O)N1CCN(c2nc(NC)c3ccccc3n2)CC1 was -13.6%.
Result for Cc1cc(NC(=O)CN2CCCC2c2c(C)nn(C)c2C)on1 (stereo not given) was 0.4802%.
Result for CCCc1n[nH]c(C2CN(Cc3nnc(C4CC4)o3)CCO2)n1 (stereo not given) was 1.069%.
Result for CCN1CCN(C(=O)c2ccc(Cn3ccccc3=O)o2)CC1 was -9.383%.

Measurements from “University of Dundee, Small-Polar-MMV Screening Library” (2021), ChEMBL document CHEMBL3988442.